Results reported in the supplement of paper PMC3334620.
The full ranking holds about 33,000 sequences; the median of “E-score (-0.5 to 0.5)” is about -0.016, and the highest 2% start at about 0.3. The list shows a part of the results.

The sequences below were run against T1, Yer184c (UniProt P39961) (assay: PBM E-score (8-mer binding enrichment) (E-score (-0.5 to 0.5)); higher = stronger / more preferred TF binding). Details: protein concentration: 100 nM; construct: GST-full length.
T1 sequence: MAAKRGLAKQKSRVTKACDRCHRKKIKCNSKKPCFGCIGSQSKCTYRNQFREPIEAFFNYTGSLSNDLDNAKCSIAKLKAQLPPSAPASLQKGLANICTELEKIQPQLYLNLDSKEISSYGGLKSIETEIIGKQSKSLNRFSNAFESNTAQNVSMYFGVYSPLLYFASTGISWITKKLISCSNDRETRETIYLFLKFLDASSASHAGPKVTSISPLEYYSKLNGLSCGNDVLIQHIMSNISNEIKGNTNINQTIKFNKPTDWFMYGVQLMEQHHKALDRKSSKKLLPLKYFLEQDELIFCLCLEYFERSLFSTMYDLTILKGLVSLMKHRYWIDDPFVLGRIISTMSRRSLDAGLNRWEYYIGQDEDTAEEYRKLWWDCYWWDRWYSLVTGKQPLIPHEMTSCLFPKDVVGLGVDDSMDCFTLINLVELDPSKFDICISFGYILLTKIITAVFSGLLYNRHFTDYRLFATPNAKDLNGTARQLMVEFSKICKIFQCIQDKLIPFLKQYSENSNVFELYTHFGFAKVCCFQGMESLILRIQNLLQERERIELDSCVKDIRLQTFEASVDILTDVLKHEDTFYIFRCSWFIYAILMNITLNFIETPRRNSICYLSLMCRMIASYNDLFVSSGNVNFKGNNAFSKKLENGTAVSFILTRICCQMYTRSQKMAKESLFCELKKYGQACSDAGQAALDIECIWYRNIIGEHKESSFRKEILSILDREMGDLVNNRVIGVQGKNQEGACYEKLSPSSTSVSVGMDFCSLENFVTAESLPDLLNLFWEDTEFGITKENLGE
Summary of the method: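 Using PURExpress in vitro transcription/translation, GST-tagged yeast transcription factors were made in full-length or DNA-binding-domain form. These were applied at about 100-200 nM to double-stranded universal all-10-mer Agilent arrays, and bound protein was detected with fluorescent anti-GST. Scans were normalised with masliner before the Universal PBM Analysis Suite assigned E-scores to ungapped eight-base words pooled with their reverse complements.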

Point of comparison: CAGCGCTC, “PBM E-score” value -0.0643. Against it:
- AGTATGTC — higher, 0.0841
- GCCCAAAC — higher, 0.0356
- TTGAAAAA — higher, 0.208
- AAAGTCTT — higher, 0.0738
- ACGACGAA — higher, 0.195
- ACTCTACT — higher, 0.0946
- CCCCCAGA — lower, -0.406
- AGAGAAGA — higher, 0.116
- ATTGCGTC — higher, -0.0563
- CACCCAAC — lower, -0.0756
- CGTAATTC — higher, 0.065
- AACTTATG — higher, 0.0543
- CGCCAGTC — lower, -0.16
- ATAAGCTA — higher, 0.0794
- CTTAACCC — lower, -0.114
- ACTTGCAG — lower, -0.129
- TCAACGAA — higher, 0.16
- ATGGCCAG — lower, -0.084
- AGCGAAAA — higher, 0.0974
- GTATGCCA — lower, -0.258
- ACTTTCCC — lower, -0.101
- CTTGTTTA — higher, 0.133
- CAATCTTA — higher, 0.0301
- AACGCGGT — higher, 0.0906
- CCGTGATC — higher, 0.144
- ACCTTGCA — lower, -0.197
- ACCAGCGG — higher, -0.0642
- CCTCAAGA — higher, -0.0169
- AGGTAACT — higher, 0.00177
- AAAGAGAA — lower, -0.065
- CCCTTTCC — lower, -0.11
- ACCAACAA — higher, 0.181
- AGCAGTTC — higher, -0.0572
- AAATGGAC — higher, 0.163
- TCAGGTAA — lower, -0.158
- CGTTATAA — higher, 0.0757
- ATCAGCCA — lower, -0.0736
- TACGGGGA — higher, 0.0473
- AGGCCATC — higher, -0.0339
- TCGGATAA — higher, 0.379
- AAAAGGGT — lower, -0.0864
- TCTTATAA — higher, 0.16
- ATCGCCGA — higher, 0.365
- AGTCCCCA — lower, -0.371
- CGCGTAAC — lower, -0.0774
- ATTAAAGC — higher, 0.138
- TCACTCCA — lower, -0.0913
- CGGTCAGA — higher, 0.102
- CTTCGCGA — higher, 0.0769
- ATATCGGA — higher, 0.277
- CAGCCTGG — lower, -0.231
- TACCCGTA — higher, -0.0504
- CTCCTACC — lower, -0.0959
- AGACTGTG — lower, -0.185
- ATATCCGC — higher, 0.178
- AGTTGTTC — higher, 0.0761
- CAAAAAGG — lower, -0.0941
- CTAATGTC — lower, -0.0899
- GTACGGAA — higher, 0.28
- CCTTCCAA — lower, -0.162
- GTATAGCA — higher, 0.168
- CATAGGCG — lower, -0.145
- TACACCTA — lower, -0.105
- GGGCAAAA — higher, 0.102
- ACGGGCAT — lower, -0.092
- GAACGCTA — lower, -0.109
- GCAGGGAC — lower, -0.254
- GCTAGAGC — higher, -0.0414
- CACAGTAC — lower, -0.0954
- CTCCATTC — lower, -0.134
- CTACGGTC — lower, -0.109
- AAATCATT — higher, 0.142
- AGAATCCC — higher, 0.07
- CTCGGGGC — higher, -0.0333
- CCCTTTTC — lower, -0.0872
- CAGTCCGG — higher, 0.143
- CACAACAC — higher, -0.0353
- ATTGCTCC — higher, 0.00744
- CGTTATCC — higher, 0.0893
- CTCGGATC — higher, 0.241
- CAACTCTG — lower, -0.103
- AACAGACC — higher, 0.11
- CCTGACCG — higher, -0.0569
- CATTCGCC — higher, -0.01
- AAAGATTT — higher, 0.108
- CCGGTGCC — higher, 0.163
- ACCTAGCC — higher, -0.0261
- AGGCTGTG — lower, -0.156
- AACCCGGA — higher, 0.266
- ATGCCATC — higher, 0.0964
- ACGCGGTA — lower, -0.105
- GTTCAGTA — higher, 0.0833
- GCATATAC — higher, -0.0635
- GAACAGCC — higher, -0.0222
- ACATTCGG — higher, 0.143
- CACTTGGA — higher, 0.00265
- AGAGTCAC — lower, -0.172
- ACTAGTAA — higher, 0.124
- CAGGTAGG — lower, -0.265
- AGATACTA — higher, 0.0257
- AGGCCCTA — lower, -0.0792
- GAGCAAAA — higher, -0.0403
- CACTACGC — lower, -0.159
- ATCCAGGA — lower, -0.19
- AACCATAC — higher, -0.0439
- TGACTACA — higher, -0.022
- CTCCCTCC — lower, -0.11
- CAACTGCG — lower, -0.128
- TCTAGGAA — lower, -0.0682
- GAGAAAGA — higher, 0.173
- GACTGAAA — higher, 0.148
- AGCCATCA — higher, 0.0179
- CGAAAACC — higher, 0.123
- CGTTAACC — higher, 0.0714
- AATATTAT — higher, 0.293
- AATTCGCC — higher, 0.267
- GCGGGCAA — higher, 0.0613
- ATAGCTGC — higher, 0.0565
- CTACGTGA — lower, -0.209
- CCCAACTA — lower, -0.0958
- CCCGAGAG — higher, 0.0683
- GGTTGGCA — lower, -0.1
- CTAAGTCA — higher, 0.0188
- CATTCGTC — higher, 0.00576
- AAAGAGGG — lower, -0.237
- AGCGCTAC — lower, -0.0782
- CTGCCATA — lower, -0.167
- GTAGATGA — higher, 0.121
- TGGATCCA — higher, 0.165
- GGCGAAAC — higher, 0.149
- GATCCCAC — lower, -0.102
- ATTTGCGC — higher, 0.0548
- AATCTTAG — higher, 0.124
- AGTGTTAT — higher, -0.0049
- ATGATCCA — lower, -0.219
- ACTACGTA — lower, -0.0862
- ACACCATA — higher, -0.0101
- CCCATCTA — lower, -0.176
- AGCATATC — lower, -0.0796
- GCGTTTGA — higher, -0.0099
- AATATTGT — higher, 0.225
- AATCTAAC — higher, 0.133
- TAACCATA — lower, -0.0927
- GATAGCGA — lower, -0.145
- CCTGTGCC — higher, -0.0204
- CTGGTCCA — lower, -0.222
- ATACCGCA — lower, -0.135
- CCAGCTAG — lower, -0.263
- CTCAGGCA — higher, -0.00429
- AGAAGAAG — higher, 0.0766
- CAGTCTCG — lower, -0.0905
- CTCTACTA — higher, 0.0728
- ATACAGGG — higher, -0.0592
- ATACGCGA — lower, -0.1
- CCGATGCA — higher, 0.157
- AATACGAT — higher, 0.0429
- CCGGATCA — higher, 0.328
- GTTGGCGA — higher, 0.0969
- AAGCCTGA — lower, -0.123
- GTACTAGA — higher, 0.0879
- CGCGGTCA — lower, -0.0723
- ACTTACAG — higher, -0.0371
- GAACCTAC — higher, 0.0438
- ACATCGGG — lower, -0.141
- ACTTAGTA — higher, 0.241
- ATACAGAG — lower, -0.122
- GCCGCAAC — higher, 0.177
- AGTACGTG — lower, -0.245
- GGTGCCCA — lower, -0.189
- ATCAACGC — higher, 0.044
- GCTGACAA — higher, 0.168
